Tested on: human erythrocytes (RBC's)
Assay: Hemolysis assay, 50% lysis of RBC's
Assay type: cell-based
Settings: Table 2
Procedure: The biological activities of these peptides were measured using human erythrocytes and E. coli as models for mammalian and bacterial cells, respectively. Hemolysis was monitored in 10 mM Tris, 150 mM NaCl, pH 7.0, while the bacterial assay was conducted in minimal media M9 (Table 1); both of these solutions are sufficiently transparent to allow CD and ultracentrifugation measurements (supplementary material). Under the assay conditions, the peptides gave CD spectra similar to those in Tris buffer, with the exception of H-(β^3-HLeu-β^3-HLys-β^3-HLeu)n-OH, n=5 and 6.
∇in M9 medium (data from Hamuro et al., ref. 5) # In M9 medium.+Hemolysis experiments were performed by incubating a 0.25% suspension of human RBc's in 10 mM Tris buffer containing […] at pH 7.0 with varying amounts of peptide. The hemolytic dose required to lyse 50% of the RBC's is reported as the HD50.
Hemolysis experiments were carried out by incubating 0.25% suspension of human erythrocytes (RBC's) with peptides of different concentrations in 150 mM sodium choloride, 10 mM Tris buffer, pH 7.0. The sample was prepared by combining 400 μL of the RBC suspension and […] of the peptide solution. After incubated the sample at 37— C. for 1 hour, the sample was centrifuged at 14,000 rpm for 5 min, and the OD414 of the supernatant was measured. Mellitin (50 μM) was used to get 100% hemolysis. […]

Structure (SMILES) | Selectivity HD50/IC50
CC(C)C[C@@H](CC(=O)O)NC(=O)C[C@H](CCCCN)NC(=O)C[C@@H](NC(=O)C[C@H](CC(C)C)NC(=O)C[C@H](CCCCN)NC(=O)C[C@@H](NC(=O)C[C@H](CC(C)C)NC(=O)C[C@H](CCCCN)NC(=O)C[C@@H](NC(=O)C[C@H](CC(C)C)NC(=O)C[C@H](CCCCN)NC(=O)C[C@@H](N)C(C)C)C(C)C)C(C)C)C(C)C [H-(β^3-HVal-β^3-HLys-β^3-HLeu)4-OH, H-(b^3-HVal-b^3-HLys-b^3-HLeu)4-OH] | 2.0
CC(C)C[C@@H](CC(=O)O)NC(=O)C[C@H](CCCCN)NC(=O)C[C@@H](NC(=O)C[C@H](CC(C)C)NC(=O)C[C@H](CCCCN)NC(=O)C[C@@H](NC(=O)C[C@H](CC(C)C)NC(=O)C[C@H](CCCCN)NC(=O)C[C@@H](N)C(C)C)C(C)C)C(C)C [H-(β^3-HVal-β^3-HLys-β^3-HLeu)3-OH, H-(b^3-HVal-b^3-HLys-b^3-HLeu)3-OH] | 2.1

From patent US6677431B2, “Design, preparation, and properties of antibacterial β-peptides” (The Trustees of the University of Pennsylvania, priority 1999, dated 2004)
